According to doi:10.1101/2025.04.08.647765:
Results are given in words; binding and its absence hold for the method and conditions named. For some assays here: In cells and extracts the contact can be indirect. Some results given as binding are weak or reduced against the parent protein; the word gives no strength.

Amino acid sequences for entries named in this document (tags omitted). A change or cut given only in a name is not applied to a line headed by its entry. Chains listed by the source or under a name are the forms on record and can include a tag or linker.
UniProt P61586: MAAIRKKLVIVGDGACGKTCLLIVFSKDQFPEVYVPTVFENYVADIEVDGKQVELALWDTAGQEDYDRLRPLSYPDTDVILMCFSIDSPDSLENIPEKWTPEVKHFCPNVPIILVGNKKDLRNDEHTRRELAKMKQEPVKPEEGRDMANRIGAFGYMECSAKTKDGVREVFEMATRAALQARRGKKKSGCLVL
Endogenous LARG (MDCK cells) (A0A8I3NRY3, form named): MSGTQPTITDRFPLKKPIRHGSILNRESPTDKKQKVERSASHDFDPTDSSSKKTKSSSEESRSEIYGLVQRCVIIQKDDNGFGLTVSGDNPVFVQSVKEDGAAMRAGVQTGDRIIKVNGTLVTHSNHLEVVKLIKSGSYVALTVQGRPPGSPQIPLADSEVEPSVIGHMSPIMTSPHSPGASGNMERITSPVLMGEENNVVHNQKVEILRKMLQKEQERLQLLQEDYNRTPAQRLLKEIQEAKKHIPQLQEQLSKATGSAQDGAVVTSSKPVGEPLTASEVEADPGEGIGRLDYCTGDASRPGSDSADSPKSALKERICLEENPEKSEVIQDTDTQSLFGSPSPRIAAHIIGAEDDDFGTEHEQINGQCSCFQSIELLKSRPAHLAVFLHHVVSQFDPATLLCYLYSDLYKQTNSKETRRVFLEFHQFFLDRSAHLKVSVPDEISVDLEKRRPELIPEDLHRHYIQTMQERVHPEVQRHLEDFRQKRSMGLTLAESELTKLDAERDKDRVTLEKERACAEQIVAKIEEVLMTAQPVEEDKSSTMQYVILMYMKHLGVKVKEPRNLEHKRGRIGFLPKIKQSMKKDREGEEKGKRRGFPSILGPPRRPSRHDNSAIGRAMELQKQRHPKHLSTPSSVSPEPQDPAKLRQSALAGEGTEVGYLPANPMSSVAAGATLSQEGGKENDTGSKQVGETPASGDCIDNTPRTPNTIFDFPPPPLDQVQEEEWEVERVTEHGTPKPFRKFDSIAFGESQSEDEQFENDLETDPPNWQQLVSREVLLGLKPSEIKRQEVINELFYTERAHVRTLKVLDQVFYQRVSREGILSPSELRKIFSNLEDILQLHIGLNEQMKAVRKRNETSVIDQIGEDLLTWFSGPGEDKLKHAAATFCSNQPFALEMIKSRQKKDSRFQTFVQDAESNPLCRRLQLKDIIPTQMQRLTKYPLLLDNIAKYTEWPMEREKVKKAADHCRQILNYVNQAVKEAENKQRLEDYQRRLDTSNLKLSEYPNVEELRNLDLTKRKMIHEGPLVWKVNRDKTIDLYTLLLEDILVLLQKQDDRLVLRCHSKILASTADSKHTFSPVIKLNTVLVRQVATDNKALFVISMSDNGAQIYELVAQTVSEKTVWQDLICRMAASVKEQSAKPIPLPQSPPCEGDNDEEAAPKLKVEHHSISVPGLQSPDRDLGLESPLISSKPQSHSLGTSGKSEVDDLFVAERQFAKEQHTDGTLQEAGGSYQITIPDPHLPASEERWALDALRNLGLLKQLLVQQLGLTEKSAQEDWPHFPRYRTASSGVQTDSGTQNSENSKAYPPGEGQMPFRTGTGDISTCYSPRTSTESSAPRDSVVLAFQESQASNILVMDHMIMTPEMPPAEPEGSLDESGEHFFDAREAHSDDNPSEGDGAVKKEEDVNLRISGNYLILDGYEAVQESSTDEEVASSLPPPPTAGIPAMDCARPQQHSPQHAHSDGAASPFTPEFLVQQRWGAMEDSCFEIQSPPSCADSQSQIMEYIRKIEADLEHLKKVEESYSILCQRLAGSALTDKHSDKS
UniProt O15085: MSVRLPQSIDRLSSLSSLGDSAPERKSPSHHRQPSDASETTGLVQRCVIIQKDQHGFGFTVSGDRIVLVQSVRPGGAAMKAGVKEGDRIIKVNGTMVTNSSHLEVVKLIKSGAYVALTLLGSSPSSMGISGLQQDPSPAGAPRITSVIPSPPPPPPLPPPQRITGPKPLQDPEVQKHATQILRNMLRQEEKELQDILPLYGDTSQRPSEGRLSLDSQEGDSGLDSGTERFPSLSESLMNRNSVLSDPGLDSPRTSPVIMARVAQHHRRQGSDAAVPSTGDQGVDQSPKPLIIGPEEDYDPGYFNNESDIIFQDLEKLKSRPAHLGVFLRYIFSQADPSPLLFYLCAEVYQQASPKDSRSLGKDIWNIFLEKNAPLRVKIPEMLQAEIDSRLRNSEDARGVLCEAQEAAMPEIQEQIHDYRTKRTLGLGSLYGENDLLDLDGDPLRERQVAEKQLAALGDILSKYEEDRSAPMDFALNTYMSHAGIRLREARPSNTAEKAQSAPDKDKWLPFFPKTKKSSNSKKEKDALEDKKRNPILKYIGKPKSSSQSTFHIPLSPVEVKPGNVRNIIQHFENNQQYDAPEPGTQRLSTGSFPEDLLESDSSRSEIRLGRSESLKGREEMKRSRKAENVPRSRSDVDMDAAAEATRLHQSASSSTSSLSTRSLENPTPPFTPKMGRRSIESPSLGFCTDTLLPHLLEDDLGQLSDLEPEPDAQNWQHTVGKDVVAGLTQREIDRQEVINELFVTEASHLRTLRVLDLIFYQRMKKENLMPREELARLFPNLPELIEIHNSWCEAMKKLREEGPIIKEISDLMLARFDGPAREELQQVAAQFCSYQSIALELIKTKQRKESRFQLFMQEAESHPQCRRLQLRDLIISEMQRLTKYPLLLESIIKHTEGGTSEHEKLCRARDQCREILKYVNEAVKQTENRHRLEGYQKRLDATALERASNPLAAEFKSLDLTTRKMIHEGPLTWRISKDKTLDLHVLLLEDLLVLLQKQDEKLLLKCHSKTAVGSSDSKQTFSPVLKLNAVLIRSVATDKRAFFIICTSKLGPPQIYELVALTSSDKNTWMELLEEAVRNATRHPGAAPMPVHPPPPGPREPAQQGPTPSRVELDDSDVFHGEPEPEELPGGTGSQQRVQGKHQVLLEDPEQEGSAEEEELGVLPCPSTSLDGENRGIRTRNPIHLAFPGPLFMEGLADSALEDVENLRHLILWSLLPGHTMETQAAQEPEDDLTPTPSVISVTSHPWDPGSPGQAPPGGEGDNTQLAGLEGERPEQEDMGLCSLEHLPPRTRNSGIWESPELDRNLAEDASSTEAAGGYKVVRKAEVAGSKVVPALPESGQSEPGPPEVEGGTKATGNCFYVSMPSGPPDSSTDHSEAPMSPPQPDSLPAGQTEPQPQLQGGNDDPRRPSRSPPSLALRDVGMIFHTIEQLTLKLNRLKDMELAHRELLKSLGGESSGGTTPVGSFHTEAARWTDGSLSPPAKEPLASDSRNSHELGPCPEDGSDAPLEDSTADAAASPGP

Legend:
GST-RhoA (G17A) = GST-RhoA (G17A) (UniProt P61586); test: pull-down
[1] = biological target: purified recombinant FLAG-tagged Solo (UniProt Q8TER5); test: co-IP

| Substance | binding (GST-RhoA (G17A)) | binding [1] |
| --- | --- | --- |
| Endogenous LARG (MDCK cells) (from UniProt A0A8I3NRY3 1-1543) | binds | – |
| purified recombinant FLAG-tagged PRG (from UniProt O15085 1-1522) | – | binds |
